Experimental data reported in PubChem BioAssay AID493014 (National Center for Advancing Translational Sciences (NCATS), 2011).
The other results are listed elsewhere or left out. Further columns of the screen follow, without active or inactive calls. Most of these compounds were active or inconclusive in the main read-out, so they are no random draw. Words in brackets tell the shape of the fitted curve; partial curves, single points and poor fits give uncertain potencies.

Experiment: qHTS Assay to Find Inhibitors of Chronic Active B-Cell Receptor Signaling
Settings: ABC-DLBCL IkBa-CBG/CBR reporter, luminescence ratio (green luciferase fused to IkBa over red control in TMD8 lymphoma cells), 4 h
Method in brief: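 Concentration-response series (up to 46 uM) were applied to TMD8 dual-reporter cells for 4 h at 37C with doxycycline. Green/red ratio, after filter-overlap correction, defined %Activity; red signal alone was normalised to basal cells and zero luminescence.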

[1] = measured here: CBR red luminescence, cell number
[2] = measured here: IkBa-CBG green luminescence

SMILES	AC50 [1]	AC50 [2]
Cc1ccc(C)c(N2C(=O)CN=C2Nc2ccccc2Cl)c1	0.00461 µM [rising, full curve, poor fit]	
O=C(Cc1ccccc1[N+](=O)[O-])Nc1ccc(S(=O)(=O)N2CCCC2)cc1	35.5 µM [rising, single point]	
COc1ccc(S(=O)(=O)NCC2CCCN(C(=O)c3cccnc3)C2)cc1 (configuration not stated)	0.708 µM [falling, full curve, poor fit]	
COc1ccc(-c2noc(N3CCC(C(=O)Nc4ccc(F)cc4F)CC3)n2)cc1	35.5 µM [falling, single point]	
O=C(CN1CCN(Cc2ccccc2)CC1)c1ccccc1	23.1 µM [rising, single point]	
COc1ccc(-c2cc3c(=O)n(CC(=O)N4CCN(C)CC4)ncn3n2)cc1	0.112 µM [rising, full curve, poor fit]	
CN(C)c1ccc(N=Nc2ccccc2C(=O)OCC(=O)NC2CCCC2)cc1	2.31 µM [rising, partial curve, poor fit]	
CCN(c1ccccc1)S(=O)(=O)c1ccc(OC)c(NC(=O)CNCCc2ccccc2)c1	11.2 µM [falling, partial curve, poor fit]	
CCC(C(=O)OCc1csc(CC(=O)Nc2ccccc2C)n1)c1ccccc1 (configuration not stated)	11.6 µM [falling, partial curve]	
O=Cc1cc(N=Nc2cccc(C(=O)O)c2)ccc1O	5.62 µM [falling, full curve]	14.1 µM [rising, partial curve, poor fit]
O=C(c1ccco1)N1CCN(C(=O)C2CCCN(S(=O)(=O)Cc3ccccc3)C2)CC1 (configuration not stated)	5.8 µM [rising, single point]	
CCC(C)c1ccc(NC(=O)CN(C)CC(=O)Nc2cccc(OC)c2)cc1 (configuration not stated)	35.5 µM [falling, single point]	
CCCCCSc1nc(N2CCOCC2)c2c(c1C#N)CC(C)(C)OC2	8.91 µM [rising, partial curve]	
CC(=O)c1ccc(NC(=O)c2ccc(NC(=O)CCS(=O)(=O)c3cccs3)cc2)cc1	12.6 µM [rising, single point]	
Cc1ccccc1-n1c(SCC(=O)Nc2ccc3c(c2)OCO3)nnc1-c1ccccn1	10.3 µM [falling, partial curve, poor fit]	
NNC(=O)c1ccc2[nH]c3c(c2c1)CCCC3	35.5 µM [falling, single point]	
O=C(CSCc1nc2ccccc2[nH]1)N1CCN(c2ccc(F)cc2)CC1	7.08 µM [falling, full curve]	
Cc1cc2cc(CCNS(C)(=O)=O)c(=O)[nH]c2cc1C	6.31 µM [falling, single point]	
CNc1oc(-c2ccccc2F)nc1S(=O)(=O)c1ccc(C)cc1	11.2 µM [falling, partial curve, poor fit]	
O=C(Cc1ccccc1)NC(NC(=S)Nc1cc(Cl)ccc1Cl)C(Cl)(Cl)Cl (configuration not stated)	10 µM [falling, partial curve]	
O=C1/C(=C/c2cccnc2)CCC/C1=C\c1cccnc1	11.6 µM [falling, partial curve]	2.06 µM [falling, partial curve, poor fit]

Pulled by structure from the list above (three):
SMILES	AC50 [1]	AC50 [2]
COc1ccc(S(=O)(=O)NCC2CCCN(C(=O)c3cccnc3)C2)cc1 (configuration not stated)	0.708 µM [falling, full curve, poor fit]	
CCC(C)c1ccc(NC(=O)CN(C)CC(=O)Nc2cccc(OC)c2)cc1 (configuration not stated)	35.5 µM [falling, single point]	
O=C1/C(=C/c2cccnc2)CCC/C1=C\c1cccnc1	11.6 µM [falling, partial curve]	2.06 µM [falling, partial curve, poor fit]

Additional entries

SMILES	AC50 [1]	AC50 [2]
CCn1c2ccccc2c2cc(NC(=O)C(C)Oc3ccccc3)ccc21 (configuration not stated)	11.2 µM [rising, partial curve, poor fit]	
CN(C)S(=O)(=O)N1CCC(Oc2cccc(C(=O)NC3CCCCC3)c2)CC1	1.41 µM [falling, partial curve, poor fit]	
Cc1nc(N2CCN(S(=O)(=O)c3ccccc3)CC2)c2cc(-c3ccccc3)sc2n1	18.4 µM [rising, partial curve, poor fit]	
COC(=O)c1ccc2c(=O)[nH]c(COC(=O)c3c(-c4ccccc4Cl)noc3C)nc2c1	29.1 µM [falling, single point]	
O=C(Nc1ccc(F)cc1)c1cc2c(s1)CCCC2	14.1 µM [falling, partial curve]	
CCC/C=N/NC(=O)c1ccccc1O	1.78 µM [falling, full curve]	
COc1ccccc1CNC(=O)C1CC(c2ccc([N+](=O)[O-])cc2)=NO1 (configuration not stated)	11.2 µM [falling, single point]	
CCOC(=O)N1CCN(c2nc3ccccc3nc2C(C#N)S(=O)(=O)c2ccc(C)cc2)CC1 (configuration not stated)	6.51 µM [rising, single point]	
Cc1cc(Nc2ccc(C(=O)O)cc2)nc(N)n1	15.8 µM [falling, single point]	
CC1=NN(C(=S)Nc2ccccc2)C(c2ccccc2)C1 (configuration not stated)	20.6 µM [rising, partial curve]	
COc1ccc2[nH]c3ccc(OC)cc3c2c1	4.47 µM [rising, partial curve, poor fit]	
O=C(/C=C/c1cccc([N+](=O)[O-])c1)NC(=S)Nc1cccc(NC(=O)c2ccccc2Cl)c1	13 µM [falling, partial curve]	
Cc1ccc(-c2noc(C3CCCCC3)n2)cc1	3.16 µM [rising, full curve]	
COc1ccc(/C=C2\SC(=S)N(CCCC(=O)N3CCOCC3)C2=O)cc1OC	8.91 µM [falling, partial curve]	
CCC(=O)OCCNc1cc(SCCC(=O)OC)c2nonc2c1[N+](=O)[O-]	16.4 µM [falling, single point]	
O=C(Nc1ccon1)c1cc2c(s1)CCCC2	29.1 µM [falling, partial curve, poor fit]	
O=C(CSc1ccc(C(F)(F)F)cn1)Nc1ccccc1	3.16 µM [falling, partial curve]	
Cc1sc2nc(SCC(=O)c3cc(C)n(CC4CCCO4)c3C)n(C(C)C)c(=O)c2c1C (configuration not stated)	8.91 µM [rising, partial curve, poor fit]	
CCOC(=O)c1sc(-c2ccc(OC)cc2)cc1N	2.91 µM [rising, partial curve]	
COc1ccc(N2CCN(C(=O)Cc3nn(C)c(=O)c4ccccc34)CC2)cc1	1.84 µM [rising, full curve, poor fit]	
COc1ccccc1C(=O)Oc1ccc(C(C)C)cc1	14.6 µM [falling, single point]	

SMILES	AC50 [1]	AC50 [2]
N#CCSc1nnc(COc2cccc3ccccc23)n1-c1cccc(Cl)c1	20 µM [falling, single point]	
OC1(C2(O)CC(c3ccccc3)ON2)CCCCC1 (configuration not stated)	28.2 µM [falling, single point]	
CCOC(=O)c1cccc(NC(=O)c2cc3sccc3n2C)c1	16.4 µM [falling, partial curve]	
COc1ccc(C2=NOC(C(=O)O)C2)cc1 (configuration not stated)	0.58 µM [falling, partial curve, poor fit]	
O=C(Nc1ccccc1C(=O)O)c1ccc(NC(=O)C2CCCO2)cc1 (configuration not stated)	11.2 µM [falling, partial curve, poor fit]	
NC(=S)N/N=C/c1ccc2cccc(OCc3ccccc3)c2n1	3.55 µM [falling, partial curve, poor fit]	
COc1cccc2cc(CC(=O)c3ccc(C)c(C)c3)c(=O)oc12	3.98 µM [falling, partial curve, poor fit]	
O=C(c1ccccc1Cl)N1N=C(c2ccc(Br)cc2)CC1c1nc2ccccc2[nH]1 (configuration not stated)	14.1 µM [rising, single point]	
Cc1ccc(/C=C2\SC(=S)N(CCCC(=O)N3CCOCC3)C2=O)cc1	0.562 µM [falling, full curve]	
COc1ccc(-c2nn(-c3ccccc3)cc2C(=O)NC(=S)NNC(=O)c2ccncc2)cc1	35.5 µM [rising, single point]	11.2 µM [falling, partial curve]
COc1ccc(Nc2nnc(SCC(=O)/C=C3/N(C)c4ccccc4C3(C)C)s2)cc1	23.1 µM [falling, partial curve, poor fit]	
O=C(/C=C/c1ccccc1)c1ccc(NC2=NCCCS2)cc1	29.1 µM [falling, single point]	29.1 µM [falling, partial curve, poor fit]
COc1ccc(NC(=O)Cc2nc3ccccc3[nH]2)cc1	11.2 µM [rising, partial curve]	
COc1cc([N+](=O)[O-])cc(/C=N/NC(=O)Cn2cncn2)c1O	11.2 µM [falling, partial curve, poor fit]	
Cc1c(Cl)cnc(NC(=O)COC(=O)C2CC3CCCC(C2)C3=O)c1Cl (configuration not stated)	6.51 µM [falling, single point]	
COc1ccc(NC(=O)CN(C)C(=O)c2oc3c(ccc4ccccc43)c2C)cc1	2.31 µM [rising, partial curve, poor fit]	
CCOC(=O)c1c(C)[nH]c(C(=O)OCC(=O)Nc2sccc2C(N)=O)c1C	10.3 µM [falling, partial curve, poor fit]	
Cc1ccc(S(=O)(=O)N2CCCC2C(=O)O)cc1 (configuration not stated)	6.31 µM [falling, single point]	
Cc1cc(NC(=O)c2ccccc2-c2ccccc2C(=O)O)no1	18.4 µM [rising, partial curve, poor fit]	
COC(=O)c1ccc(C(=O)NC(=S)Nc2nc3c(s2)CCCC3)cc1	1.03 µM [falling, full curve]	
Cc1ccc(-n2c(C)cc(C(=O)OCC(=O)N(C)C3CCS(=O)(=O)C3)c2C)cc1 (configuration not stated)	5.8 µM [falling, partial curve, poor fit]	
